{"source": "patent US20150292030A1", "about": "“METHODS OF CHARACTERIZING AND TREATING MOLECULAR SUBSET OF MUSCLE-INVASIVE BLADDER CANCER” (BOARD OF REGENTS, THE UNIVERSITY OF TEXAS SYSTEM, priority 2012, published 2015)", "key": {"UC9": {"test_system": "UC9", "assay": "Whole genome expression profiling and IPA pathway analysis of rosiglitazone treated UC9", "assay_type": "cell-based, human", "settings": "UC9 cells"}, "UC7": {"test_system": "UC7", "assay": "Whole genome expression profiling and IPA pathway analysis of rosiglitazone treated UC7", "assay_type": "cell-based, human", "settings": "UC7 cells"}}, "note": "At least one structure is not confirmed: it was looked up by name or label, or the drawing left a doubt."}
{"smiles": "CN(CCOc1ccc(CC2SC(=O)NC2=O)cc1)c1ccccn1", "note": "(centres unmarked) [rosiglitazone]", "values": [{"measurement": "Myc, p63, and NFκB pathways", "setting": "UC9", "result": "downregulated"}, {"measurement": "PPAR pathway gene expression", "setting": "UC9", "result": "strongly induced"}, {"measurement": "TRIM24 pathway activity", "setting": "UC9", "result": "increased"}, {"measurement": "expression of basal markers", "setting": "UC9", "result": "decreased expression"}, {"measurement": "expression of luminal markers", "setting": "UC9", "result": "induced expression"}, {"measurement": "expression of luminal markers", "setting": "UC9; listed as Rosiglitazone", "result": "increased expression"}, {"measurement": "ER-, PPARγ-, and IRF-1-transcriptional pathways", "setting": "UC7", "result": "induced expression"}, {"measurement": "PPAR pathway gene expression", "setting": "UC7", "result": "strongly induced"}, {"measurement": "expression of basal markers", "setting": "UC7", "result": "decreased expression"}, {"measurement": "expression of luminal markers", "setting": "UC7", "result": "induced expression"}, {"measurement": "expression of luminal markers", "setting": "UC7; listed as Rosiglitazone", "result": "increased expression"}]}
